In PMC5805732:
No constants are given. Whether binding was seen depends on the method and setting. In cells and extracts the contact can be indirect. Some results given as binding are weak or reduced against the parent protein; the word gives no strength. For some of these results: Where a sequence is shown, tags or fusion partners need not be part of it.

By UniProt entry, the sequences of proteins in these tests, tags left out.
UniProt P15927: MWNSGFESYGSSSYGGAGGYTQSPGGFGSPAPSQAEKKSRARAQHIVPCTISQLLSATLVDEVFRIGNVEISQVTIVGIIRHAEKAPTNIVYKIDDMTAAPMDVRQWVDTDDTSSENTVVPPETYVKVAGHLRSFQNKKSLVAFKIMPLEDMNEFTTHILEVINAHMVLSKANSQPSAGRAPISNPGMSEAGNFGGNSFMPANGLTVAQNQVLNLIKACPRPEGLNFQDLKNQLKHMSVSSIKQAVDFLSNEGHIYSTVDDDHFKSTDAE
UniProt P50533: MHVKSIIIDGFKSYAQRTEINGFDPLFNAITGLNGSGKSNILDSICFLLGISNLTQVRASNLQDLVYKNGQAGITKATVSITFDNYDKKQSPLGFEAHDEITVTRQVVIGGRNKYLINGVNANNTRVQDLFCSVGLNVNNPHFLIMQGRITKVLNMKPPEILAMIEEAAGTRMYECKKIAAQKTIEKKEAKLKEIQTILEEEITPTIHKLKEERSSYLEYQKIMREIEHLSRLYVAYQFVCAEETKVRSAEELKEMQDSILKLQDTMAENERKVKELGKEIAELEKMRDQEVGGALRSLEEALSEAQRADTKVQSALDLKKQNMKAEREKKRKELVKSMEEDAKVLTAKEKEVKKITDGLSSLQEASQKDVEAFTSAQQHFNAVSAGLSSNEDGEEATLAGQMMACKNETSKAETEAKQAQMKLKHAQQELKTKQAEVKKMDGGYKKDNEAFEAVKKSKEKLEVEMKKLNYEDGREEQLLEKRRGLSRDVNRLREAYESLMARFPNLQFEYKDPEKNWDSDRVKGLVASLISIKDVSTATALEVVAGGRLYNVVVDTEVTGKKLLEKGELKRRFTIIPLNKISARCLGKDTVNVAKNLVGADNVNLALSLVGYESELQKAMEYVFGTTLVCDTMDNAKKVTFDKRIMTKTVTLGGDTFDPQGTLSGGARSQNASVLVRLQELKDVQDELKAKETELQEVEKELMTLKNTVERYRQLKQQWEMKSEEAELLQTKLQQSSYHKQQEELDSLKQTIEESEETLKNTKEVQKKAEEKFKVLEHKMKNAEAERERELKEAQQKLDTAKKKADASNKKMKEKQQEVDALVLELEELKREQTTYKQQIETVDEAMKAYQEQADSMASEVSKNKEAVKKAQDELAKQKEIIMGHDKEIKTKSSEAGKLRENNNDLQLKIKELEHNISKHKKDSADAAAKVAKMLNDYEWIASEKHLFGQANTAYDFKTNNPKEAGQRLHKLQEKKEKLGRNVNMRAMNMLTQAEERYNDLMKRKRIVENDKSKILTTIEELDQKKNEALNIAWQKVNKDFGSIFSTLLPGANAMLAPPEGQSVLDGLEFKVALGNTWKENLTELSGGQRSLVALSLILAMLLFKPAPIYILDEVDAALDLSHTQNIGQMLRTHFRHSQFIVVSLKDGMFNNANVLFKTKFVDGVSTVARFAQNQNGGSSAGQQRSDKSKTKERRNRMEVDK
UniProt Q6NTJ3: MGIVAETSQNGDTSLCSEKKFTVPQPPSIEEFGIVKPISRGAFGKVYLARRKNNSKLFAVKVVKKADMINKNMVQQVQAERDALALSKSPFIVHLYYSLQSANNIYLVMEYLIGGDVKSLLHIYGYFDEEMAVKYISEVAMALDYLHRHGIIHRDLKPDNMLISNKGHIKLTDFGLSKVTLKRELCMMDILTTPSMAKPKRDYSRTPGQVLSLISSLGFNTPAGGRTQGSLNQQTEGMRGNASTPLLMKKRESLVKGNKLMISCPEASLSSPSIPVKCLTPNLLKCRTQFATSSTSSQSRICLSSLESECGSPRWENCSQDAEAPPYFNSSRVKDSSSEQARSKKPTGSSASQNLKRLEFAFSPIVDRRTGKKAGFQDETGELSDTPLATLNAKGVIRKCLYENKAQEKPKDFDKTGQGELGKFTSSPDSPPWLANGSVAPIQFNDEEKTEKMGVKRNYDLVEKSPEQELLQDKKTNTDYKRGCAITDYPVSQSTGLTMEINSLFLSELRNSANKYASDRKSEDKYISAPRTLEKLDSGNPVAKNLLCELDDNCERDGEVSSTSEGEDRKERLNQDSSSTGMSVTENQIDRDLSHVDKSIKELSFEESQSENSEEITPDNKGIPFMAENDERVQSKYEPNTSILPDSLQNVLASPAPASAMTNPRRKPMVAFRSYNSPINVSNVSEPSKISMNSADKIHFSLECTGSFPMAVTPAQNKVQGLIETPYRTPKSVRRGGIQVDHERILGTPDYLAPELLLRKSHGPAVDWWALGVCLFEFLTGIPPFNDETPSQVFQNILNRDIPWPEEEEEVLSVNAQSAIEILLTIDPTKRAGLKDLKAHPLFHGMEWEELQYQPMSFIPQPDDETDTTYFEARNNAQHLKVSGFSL
UniProt P70032: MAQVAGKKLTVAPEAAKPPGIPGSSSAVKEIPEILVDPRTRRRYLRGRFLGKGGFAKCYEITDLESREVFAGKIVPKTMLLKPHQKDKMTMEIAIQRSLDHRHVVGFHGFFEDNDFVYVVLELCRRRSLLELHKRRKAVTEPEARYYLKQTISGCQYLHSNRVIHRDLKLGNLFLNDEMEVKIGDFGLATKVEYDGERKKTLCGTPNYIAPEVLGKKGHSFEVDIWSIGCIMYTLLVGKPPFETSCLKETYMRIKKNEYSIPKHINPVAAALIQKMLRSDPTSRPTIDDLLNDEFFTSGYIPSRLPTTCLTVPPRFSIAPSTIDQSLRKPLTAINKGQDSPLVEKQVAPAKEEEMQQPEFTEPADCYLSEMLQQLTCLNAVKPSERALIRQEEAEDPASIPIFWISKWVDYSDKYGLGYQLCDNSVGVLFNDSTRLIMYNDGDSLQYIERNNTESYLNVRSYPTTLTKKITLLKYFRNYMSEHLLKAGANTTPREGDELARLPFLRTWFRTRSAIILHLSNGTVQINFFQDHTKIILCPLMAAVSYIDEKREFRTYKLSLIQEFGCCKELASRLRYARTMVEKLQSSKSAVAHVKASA

Columns and labels:
[1] = target: T1, MBP-B55β (Xenopus) (UniProt A1L3L9); assay: pull-down; about 10 μg MBP-B55 on amylose beads (20 μl) incubated in interphase Xenopus egg extracts (40 μl), 30 min, room temperature; immunoblotting; control: amylose beads not conjugated with proteins; only the target purified
T1 sequence: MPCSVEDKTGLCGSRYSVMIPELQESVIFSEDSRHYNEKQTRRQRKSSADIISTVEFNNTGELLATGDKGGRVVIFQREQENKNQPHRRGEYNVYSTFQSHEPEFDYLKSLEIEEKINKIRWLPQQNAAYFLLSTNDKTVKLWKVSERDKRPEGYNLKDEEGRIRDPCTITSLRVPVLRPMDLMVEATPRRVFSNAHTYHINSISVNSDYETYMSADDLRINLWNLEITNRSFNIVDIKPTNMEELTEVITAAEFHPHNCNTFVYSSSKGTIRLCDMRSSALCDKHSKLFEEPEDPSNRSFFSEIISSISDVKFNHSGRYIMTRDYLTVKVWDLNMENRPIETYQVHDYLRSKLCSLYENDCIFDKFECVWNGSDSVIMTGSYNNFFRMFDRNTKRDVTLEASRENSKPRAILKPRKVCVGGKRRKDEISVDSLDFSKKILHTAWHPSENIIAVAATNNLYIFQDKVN

[2] = target: T2, B55α (endogenous, human cells) (human (endogenous in HeLa)) (UniProt P63151); assay: co-IP; endogenous proteins in HeLa cell lysates; primary antibody (RPA2 or B55α) on anti-mouse or anti-rabbit magnetic beads, 1 h; immunoblotting; control IP with blank beads; cells also pre-treated with HU (1 mM, 24 h) or mock-treated
T2 sequence: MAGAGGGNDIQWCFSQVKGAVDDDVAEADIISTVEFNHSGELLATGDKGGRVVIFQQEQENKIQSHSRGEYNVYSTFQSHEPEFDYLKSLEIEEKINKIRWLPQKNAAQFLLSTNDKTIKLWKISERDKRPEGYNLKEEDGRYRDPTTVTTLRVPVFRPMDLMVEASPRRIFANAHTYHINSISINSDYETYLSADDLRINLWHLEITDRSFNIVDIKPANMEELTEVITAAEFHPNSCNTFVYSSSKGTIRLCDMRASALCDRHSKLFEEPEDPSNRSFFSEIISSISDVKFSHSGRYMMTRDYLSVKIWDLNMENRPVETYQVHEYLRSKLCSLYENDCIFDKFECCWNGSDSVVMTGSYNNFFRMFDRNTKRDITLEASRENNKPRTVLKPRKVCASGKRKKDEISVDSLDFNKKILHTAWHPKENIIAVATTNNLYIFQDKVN

[3] = target: T3, HA-B55α (UniProt P63151); assay: co-IP; HA IP from lysates of HeLa cells expressing HA-B55α, treated with or without HU (1 mM, 24 h); immunoblotting for B55α and RPA2; control IP with blank beads
T3 sequence: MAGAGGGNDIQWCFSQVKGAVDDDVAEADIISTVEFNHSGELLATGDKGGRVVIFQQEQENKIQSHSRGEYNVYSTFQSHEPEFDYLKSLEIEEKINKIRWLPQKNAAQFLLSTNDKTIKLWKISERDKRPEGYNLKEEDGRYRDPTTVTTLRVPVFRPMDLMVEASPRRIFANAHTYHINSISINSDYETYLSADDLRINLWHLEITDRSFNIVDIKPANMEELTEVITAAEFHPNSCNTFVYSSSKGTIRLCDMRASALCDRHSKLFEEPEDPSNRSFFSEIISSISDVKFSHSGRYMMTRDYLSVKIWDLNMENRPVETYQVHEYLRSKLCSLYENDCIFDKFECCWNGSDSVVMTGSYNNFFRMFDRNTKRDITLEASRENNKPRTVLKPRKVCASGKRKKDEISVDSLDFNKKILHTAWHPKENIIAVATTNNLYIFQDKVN

[4] = target: RPA2 (human (endogenous in HeLa)) (UniProt P15927); assay: co-IP; endogenous proteins in HeLa cell lysates; primary antibody (RPA2 or B55α) on anti-mouse or anti-rabbit magnetic beads, 1 h; immunoblotting; control IP with blank beads; cells also pre-treated with HU (1 mM, 24 h) or mock-treated

Row | Molecule | binding [1] | further results
1 | Condensin subunit Smc2 (from UniProt P50533 1-1203) | binds | 
2 | RPA2 (from UniProt P15927 1-270) |  | binding [2]: binds; binding [3]: binds
3 | mitotic kinase Mastl (from UniProt Q6NTJ3 1-887) (enzyme) | binds | 
4 | mitotic kinase Plk1 (from UniProt P70032 1-598) (enzyme) | binds | 
5 | DNA replication protein Mcm2 (protein, UniProt P55861 1-886) MADSSESFNIATSPRAGSRRDALTSSPGRDLPPFEDESEGMFGDGVVPEEEEDGEELIGDAMERDYRPISELDRYEVEGLDDEEDVEDLTASQREAAEQSMRMRDREMGRELGRMRRGLLYDSDEEEEDRPARKRRMAERAAEGAPEEDEEMIESIENLEDMKGHTVREWVSMAATRLEIYHRFKNFLRTHVDEHGHNVFKEKISDMCKENKESLPVNYEDLAAREHVLAYFLPEAPAEMLKIFDEAAKEVVLVMYPKYDRIAREIHVRISHLPLVEELRSLRQLHLNQLIRTSGVVTCCTGVLPQLSMVKYNCNKCNFILGPFFQSQNQEVRPGSCPECQSFGPFEINMEETVYQNYQRITIQESPGKVAAGRLPRSKDAILLADLVDSCKPGDEIELTGIYHNNYDGSLNTANGFPVFATVILANHITKKDDKVAVGELTDEDVKAIVALSKDERIGERIFASIAPSIYGHEDIKRGLALALFGGEAKNPGGKHKVRGDINVLLCGDPGTAKSQFLKYVEKVASRAVFTTGQGASAVGLTAYVQRHPVTKEWTLEAGALVLADRGVCLIDEFDKMNDQDRTSIHEAMEQQSISISKAGIVTSLQARCTVIAASNPIGGRYDPSLTFSENVDLTEPIVSRFDILCVVRDTVDPVQDEMLARFVVSSHIKHHPSSKDIANGDAAEFALPNTFGVEALPQEVLKKYIMYAKEKIRPKLNQMDQDKVAKMYSDLRKESMATGSIPITVRHIESMIRMAEAHARMHLRDYVVEDDVNMAIRVMLESFIDTQKFSVMRSMRKTFARYLAFRRDNNELLLFVLKQLIAEQVTYQRNRYGAQQDTIEVPEKDLVDKARQINIHNLSAFYDSDLFKMNKFTHDVKKKLIIQQF | binds | 
6 | B55α (endogenous, human cells) (protein, UniProt P63151 1-447) MAGAGGGNDIQWCFSQVKGAVDDDVAEADIISTVEFNHSGELLATGDKGGRVVIFQQEQENKIQSHSRGEYNVYSTFQSHEPEFDYLKSLEIEEKINKIRWLPQKNAAQFLLSTNDKTIKLWKISERDKRPEGYNLKEEDGRYRDPTTVTTLRVPVFRPMDLMVEASPRRIFANAHTYHINSISINSDYETYLSADDLRINLWHLEITDRSFNIVDIKPANMEELTEVITAAEFHPNSCNTFVYSSSKGTIRLCDMRASALCDRHSKLFEEPEDPSNRSFFSEIISSISDVKFSHSGRYMMTRDYLSVKIWDLNMENRPVETYQVHEYLRSKLCSLYENDCIFDKFECCWNGSDSVVMTGSYNNFFRMFDRNTKRDITLEASRENNKPRTVLKPRKVCASGKRKKDEISVDSLDFNKKILHTAWHPKENIIAVATTNNLYIFQDKVN |  | binding [4]: binds
